The assay has as its target T1, CDC50A (TMEM30A), mouse, endogenous (mouse (endogenous in mouse tissues)) (UniProt Q8VEK0).
T1 sequence: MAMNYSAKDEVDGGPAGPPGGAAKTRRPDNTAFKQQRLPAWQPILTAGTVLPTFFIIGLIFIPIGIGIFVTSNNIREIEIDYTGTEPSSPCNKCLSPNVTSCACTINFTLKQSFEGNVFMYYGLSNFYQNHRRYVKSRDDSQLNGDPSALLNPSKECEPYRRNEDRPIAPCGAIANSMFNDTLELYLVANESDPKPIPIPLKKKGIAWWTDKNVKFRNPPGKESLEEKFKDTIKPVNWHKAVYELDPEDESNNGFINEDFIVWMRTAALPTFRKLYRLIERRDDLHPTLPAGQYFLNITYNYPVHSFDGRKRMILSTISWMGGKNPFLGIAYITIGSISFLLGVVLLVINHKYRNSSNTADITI
Put plainly: affinity purification with mass spectrometry; CHAPS-solubilised membranes of mouse retina, liver, brain, testes, kidney (~20 mg protein) on Cdc50-7F4-Sepharose, 4 °C, 1 h; washed in 10 mM CHAPS, 40 mM Tris pH 7.4, 150 mM NaCl, 5 mM MgCl2, 1 mM DTT; eluted with 7F4 peptide; in-gel (retina) or FASP trypsin digestion, MS/MS.

Results are given in words; binding and its absence hold for the method and conditions named. Binding seen in cells or lysates may run through a third protein. These calls come from enrichment with a bait or labelling near it, and not all partners need be listed.

B1: ATP11A, mouse, endogenous (protein, UniProt P98197 1-1187)
chain: MDCSLLRTLVRRYCAGEENWVDSRTIYVGHKEPPPGAEAYIPQRYPDNRIVSSKYTFWNFIPKNLFEQFRRIANFYFLIIFLVQLIIDTPTSPVTSGLPLFFVITVTAIKQGYEDWLRHKADNAMNQCPVHFIQHGKLVRKQSRKLRVGDIVMVKEDETFPCDLIFLSSNRADGTCHVTTASLDGESSHKTHYAVQDTKGFHTEADVDSLHATIECEQPQPDLYKFVGRINVYNDLNDPVVRPLGSENLLLRGATLKNTEKIFGVAIYTGMETKMALNYQSKSQKRSAVEKSMNTFLIVYLCILVSKALINTVLKYVWQSEPFRDEPWYNEKTESERQRNLFLRAFTDFLAFMVLFNYIIPVSMYVTVEMQKFLGSYFITWDEDMFDEEMGEGPLVNTSDLNEELGQVEYIFTDKTGTLTENNMAFKECCIEGHVYVPHVICNGQVLPDSSGIDMIDSSPGVCGREREELFFRAICLCHTVQVKDDHCGDDVDGPQKSPDAKSCVYISSSPDEVALVEGVQRLGFTYLRLKDNYMEILNRENDIERFELLEVLTFDSVRRRMSVIVKSTTGEIYLFCKGADSSIFPRVIEGKVDQVRSRVERNAVEGLRTLCVAYKRLEPEQYEDACRLLQSAKVALQDREKKLAEAYEQIEKDLVLLGATAVEDRLQEKAADTIEALQKAGIKVWVLTGDKMETASATCYACKLFRRSTQLLELTTKKLEEQSLHDVLFDLSKTVLRCSGSMTRDSFSGLSTDMHDYGLIIDGAALSLIMKPREDGSSSGNYRELFLEICRNCSAVLCCRMAPLQKAQIVKLIKFSKEHPITLAIGDGANDVSMILEAHVGIGVIGKEGRQAARNSDYAIPKFKHLKKMLLVHGHFYYIRISELVQYFFYKNVCFIFPQFLYQFFCGFSQQTLYDTAYLTLYNISFTSLPILLYSLMEQHVGIDVLKRDPTLYRDIAKNALLRWRVFIYWTFLGVFDALVFFFGAYFIFENTTVTINGQMFGNWTFGTLVFTVMVLTVTLKLALDTHYWTWINHFVIWGSLLFYIAFSLLWGGVIWPFLSYQRMYYVFISMLSSGPAWLGIILLVTVGLLPDVLKKVLCRQLWPTATERTQNIQHQDSISEFTPLASLPSWGAQGSRLLAAQCSSPSGRVVCSRWESEECPVLPLHPGLPHKARYGCCRSSLEMPT
Turning to B1, the binding entry was “binds”.

B2: ATP11B, mouse, endogenous (protein, UniProt Q6DFW5 1-1175)
chain: MWRWVRQQLGFDPPHQSDTRTIYIANRFPQNGLYTPQKFIDNRIISSKYTIWNFVPKNLFEQFRRVANFYFLIIFLVQLMIDTPTSPITSGLPLFFVITVTAIKQGYEDWLRHNSDNEVNGAPVYVVRSGGLVKTRSKNIRVGDIVRIAKDEIFPADLVLLSSDRLDGSCHVTTASLDGETNLKTHVSVPETAVLQTVANLDSLIAVIECQQPEADLYRFMGRMIITQQMEEIVRPLGPESLLLRGARLKNTKEIFGVAVYTGMETKMALNYKSKSQKRSAVEKSMNTFLIIYLIILISEAIISTILKYTWQAEEKWDEPWYNQKTEHQRNSSKILRFISDFLAFLVLYNFIIPISLYVTVEMQKFLGSFFIGWDLDLYHEESDQKAQVNTSDLNEELGQVEYVFTDKTGTLTENEMQFRECSINGLKYQEINGKLVPEGPSPDSTEGEVPFLGSLSHLSNSAHLTATSLRTSPESETELIKEHDLFFKAVSLCHTVQISNVQTDGIGDGPWQPNLAPAQLEYYASSPDEKALVEAAARAGIIFVGISEETMEVKVLGRLERYKLLHILEFDSDRRRMSVIVQAPSGEKLLFAKGAESSILPKCIGGEIAKTRIHVDEFALKGLRTLCIAYRQFTAKEYEDVDRRLFEARTALQHREEKLADAFQYIEKDLILLGATAVEDRLQDKVRETIEALRMAGIKVWVLTGDKHETAVSVSLSCGHFHRTMNILELINQKSDSGCAEQLRQLARRITEDHVIQHGLVVDGTSLSLALREHEKLFMEVCRNCSAVLCCRMAPLQKAKVIRLIKISPEKPITLAVGDGANDVSMIQEAHVGIGIMGKEGRQAARNSDYAIARFKFLSKLLFVHGHFYYIRIATLVQYFFYKNVCFITPQFLYQFYCLFSQQTLYDSVYLTLYNICFTSLPVLIYSLVEQHIDPHVLQSKPTLYRDISKNGLLSIKAFLYWTVLGFSHAFIFFFGSYFLVGKDTSLLGNGQMFGNWTFGTLVFTVMVITVTVKMALETHFWTWINHLVTWGSIIFYFIFSLFYGGILWPFLGSQNMYFVFIQLLSSGSAWFAILLMVVTCLFIDVVKKVFDRQLHPTSTEKAQLAEAHSSVKCLDSVCCFPGETPCASVGRMLERVIGRCSPNHISRLWNASDPFYTNDRSILTLSPMDSSTC
Take B2: the binding entry is “binds”.

B3: ATP8A2, mouse, endogenous (protein, UniProt P98200 1-1148)
chain: MSRATSVGDQLEAPARIIYLNQSHLNKFCDNRISTAKYSVLTFLPRFLYEQIRRAANAFFLFIALLQQIPDVSPTGRYTTLVPLVIILTIAGIKEIIEDFKRHKADNAVNKKKTIVLRNGMWHTIMWKEVAVGDIVKVLNGQYLPADMVLFSSSEPQGMCYVETANLDGETNLKIRQGLSHTTDMQTRDVLMKLSGRIECEGPNRHLYDFTGNLHLDGKSSVALGPDQILLRGTQLRNTQWVFGVVVYTGHDSKLMQNSTKAPLKRSNVEKVTNVQILVLFGILLVMALVSSVGALFWNGSHGGKSWYIKKMDTNSDNFGYNLLTFIILYNNLIPISLLVTLEVVKYTQALFINWDMDMYYIENDTPAMARTSNLNEELGQVKYLFSDKTGTLTCNIMNFKKCSIAGVTYGHFPELAREQSSDDFCRMTSCTNDSCDFNDPRLLKNIEDQHPTAPCIQEFLTLLAVCHTVVPEKDGDEIIYQASSPDEAALVKGAKKLGFVFTGRTPYSVIIEAMGQEQTFGILNVLEFSSDRKRMSVIVRLPSGQLRLYCKGADNVIFERLSKDSKYMEETLCHLEYFATEGLRTLCVAYADLSENEYEEWLKVYQEASIILKDRAQRLEECYEIIEKNLLLLGATAIEDRLQAGVPETIATLLKAEIKIWVLTGDKQETAINIGYSCRLVSQNMALILLKEDSLDATRAAITQHCTDLGNLLGKENDVALIIDGHTLKYALSFEVRRSFLDLALSCKAVICCRVSPLQKSEIVDVVKKRVKAITLAIGDGANDVGMIQTAHVGVGISGNEGMQATNNSDYAIAQFSYLEKLLLVHGAWSYNRVTKCILYCFYKNVVLYIIELWFAFVNGFSGQILFERWCIGLYNVIFTALPPFTLGIFERSCTQESMLRFPQLYRITQNAEGFNTKVFWGHCINALVHSLILFWVPMKALEHDTPVTSGHATDYLFVGNIVYTYVVVTVCLKAGLETTAWTKFSHLAVWGSMLIWLVFFGVYSTIWPTIPIAPDMKGQATMVLSSAYFWLGLFLVPTACLIEDVAWRAAKHTCKKTLLEEVQELETKSRVMGKAMLRDSNGKRMNERDRLIKRLSRKTPPTLFRTGSIQQCVSHGYAFSQEEHGAVTQEEIVRAYDTTKENSRKK
Turning to B3, the binding entry is on record as “binds”.

B4: ATP11C, mouse, endogenous (protein, UniProt Q9QZW0 1-1129)
chain: MFRRTLNRLCAGEEKRVGTRTVFVGNHPISGTEPYIAQRFCDNRIVSSKYTLWNFLPKNLFEQFRRIANFYFLIIFLVQVTVDTPTSPVTSGLPLFFVITVTAIKQGYEDWLRHRADNEVNKSAVYIIENAKRVRKESEKIKVGDVVEVQANETFPCDLILLSSCTTDGTCYVTTASLDGESNCKTHYAVRDTIALCTAESIDNLRATIECEQPQPDLYRFVGRISIYSNSIEAVARSLGPENLLLKGATLKNTKKIYGVAVYTGMETKMALNYQGKSQKCSAVEKSINAFLIVYLFILLTKAAVCTTLKYVWQSSPYNDEPWYNQKTQKERETFQVLKMFTDFLSFMVLFNFIIPVSMYVTVEMQKFLGSFFISWDKDFFDEEINEGALVNTSDLNEELGQVDYVFTDKTGTLTENSMEFIECCIDGHKYKGTTQEVDGLSQTDGPLAYFDKADKNREALFLRALCLCHTVEMKTNDDVDGPVEGAGFTYISSSPDEIALVKGAKRFGFTFLGNQNGYIRVENQRKEIEEYELLHTLNFDSVRRRMSVIVRTQKGDILLFCKGADSSIFPRVHSHQIELTKDHVERNAMDGYRTLCVAFKEIPPDDFERINAQLVEAKMALQDREEKLEKVFDEIETNMNLIGATAVEDKLQDQAAETIEALHAAGLKVWVLTGDKMETAKSTCYACRLFQTNTELLELTTKTIEESERKEDRLHELLIEYRKKLLHEFPKSTRSLKKAWTEHQEYGLIIDGSTLSLILNSSQDCSSNNYKSIFLQICMKCTAVLCCRMAPLQKAQIVRMVKNLKGSPITLSIGDGANDVSMILESHVGIGIKGKEGRQAARNSDYSVPKFKHLKKLLLVHGHLYYVRIAHLVQYFFYKNLCFILPQFLYQFFCGFSQQPLYDAAYLTMYNICFTSLPILAYSLLEQHINIDTLTADPRLYMKITGNAMLQLGPFLHWTFLAAFEGTVFFFGTYFLFQTSSLEDNGKIYGNWTFGTIVFTVLVFTVTLKLALDTRFWTWINHFVIWGSLAFYVFFSFFWGGIIWPFLKQQRMYFVFAQMLCSVSTWLAIILLIFISLFPEILLIVVKNVRRRSARRNLSCRRASDSLSARPSVRPLLLRTFSDESNIL
Take B4: the binding entry was “binds”.

For the origin of these results see PMC6050252.
